Laboratory results published in patent US20090238778A1, “TOOTH WHITENING COMPOSITIONS, DELIVERY SYSTEMS AND METHODS” (priority 2008, published 2009).

System: extracted human teeth
Assay: adsorption and desorption of riboflavin phosphate on extracted human teeth
[1] = treated specimens subsequently exposed to ambient light for 4 hours

## Cc1cc2nc3c(=O)[nH]c(=O)nc-3n(C[C@H](O)[C@H](O)[C@H](O)COP(=O)(O)O)c2cc1C [riboflavin phosphate, riboflavin 5′-monophosphate]
After 20 minute treatment with aqueous 0.01% solution, N=8
  delta b after treatment: 1.15
After 20 minute treatment with aqueous 0.01% solution, N=8, before treatment 21.42
  average b* value after treatment: 22.57
[1]
  average b* after ambient light: 21.43
  delta b from original b*: 0.01
